Assay results reported in publication PMC8653791, “TBX2 controls a proproliferative gene expression program in melanoma”.
No constants are given. Whether binding was seen depends on the method and setting. Some binding calls cover weakened binding; strength is not graded here.

Protein sequences, listed by entry. Tags and fused reporters are not part of them.
UniProt Q9BSM1: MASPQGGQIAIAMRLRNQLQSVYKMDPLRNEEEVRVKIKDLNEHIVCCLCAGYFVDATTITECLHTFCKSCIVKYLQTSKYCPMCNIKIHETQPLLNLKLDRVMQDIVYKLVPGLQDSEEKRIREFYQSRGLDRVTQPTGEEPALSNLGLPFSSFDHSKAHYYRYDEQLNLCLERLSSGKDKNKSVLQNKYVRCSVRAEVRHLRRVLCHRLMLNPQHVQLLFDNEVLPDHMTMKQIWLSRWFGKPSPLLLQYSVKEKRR

How the values were obtained:
Assay in all cases: nuclear tethering assay (LacR bait on a LacO array, GFP prey); U2OS-LacO cells co-transfected with mCherry-LacR bait and GFP-tagged prey plasmids; GFP at the mCherry focus against the rest of the nucleus (dot/nucleus ratio); cells fixed with 4% PFA before imaging
[1] = target: T1, mCherry-LacR-Tbx2 (UniProt Q60707)
T1 sequence: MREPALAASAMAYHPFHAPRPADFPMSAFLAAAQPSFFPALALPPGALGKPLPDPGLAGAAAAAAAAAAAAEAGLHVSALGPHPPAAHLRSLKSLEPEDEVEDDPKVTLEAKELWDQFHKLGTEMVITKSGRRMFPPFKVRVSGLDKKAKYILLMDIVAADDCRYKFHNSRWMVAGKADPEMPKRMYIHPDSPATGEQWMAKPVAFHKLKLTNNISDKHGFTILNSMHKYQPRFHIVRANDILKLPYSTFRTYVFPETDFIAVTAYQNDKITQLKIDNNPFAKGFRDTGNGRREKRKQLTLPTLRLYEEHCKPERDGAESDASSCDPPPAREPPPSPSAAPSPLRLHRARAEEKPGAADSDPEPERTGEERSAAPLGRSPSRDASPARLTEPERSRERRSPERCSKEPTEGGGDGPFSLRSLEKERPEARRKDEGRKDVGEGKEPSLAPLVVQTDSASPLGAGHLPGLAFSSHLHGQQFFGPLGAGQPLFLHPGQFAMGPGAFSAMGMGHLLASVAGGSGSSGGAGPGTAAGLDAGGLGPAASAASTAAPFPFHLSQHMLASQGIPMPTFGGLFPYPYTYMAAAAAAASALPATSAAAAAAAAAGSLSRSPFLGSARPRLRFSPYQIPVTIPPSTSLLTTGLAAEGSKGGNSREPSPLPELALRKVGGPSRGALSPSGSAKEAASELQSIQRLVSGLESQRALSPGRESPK

[2] = target: T2, mCherry-LacR-Tbx2 C-terminal region (UniProt Q60707)
T2 sequence: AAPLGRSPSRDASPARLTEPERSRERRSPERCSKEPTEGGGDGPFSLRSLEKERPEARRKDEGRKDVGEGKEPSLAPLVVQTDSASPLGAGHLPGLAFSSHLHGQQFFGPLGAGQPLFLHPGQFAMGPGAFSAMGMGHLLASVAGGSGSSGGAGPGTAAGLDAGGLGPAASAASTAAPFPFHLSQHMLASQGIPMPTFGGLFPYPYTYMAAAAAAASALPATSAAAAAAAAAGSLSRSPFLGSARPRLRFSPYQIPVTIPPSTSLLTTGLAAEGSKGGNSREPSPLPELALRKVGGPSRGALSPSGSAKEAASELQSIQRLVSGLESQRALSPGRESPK

[3] = target: T3, mCherry-LacR-Tbx2 N-terminal domain containing the T-box (UniProt Q60707)
T3 sequence: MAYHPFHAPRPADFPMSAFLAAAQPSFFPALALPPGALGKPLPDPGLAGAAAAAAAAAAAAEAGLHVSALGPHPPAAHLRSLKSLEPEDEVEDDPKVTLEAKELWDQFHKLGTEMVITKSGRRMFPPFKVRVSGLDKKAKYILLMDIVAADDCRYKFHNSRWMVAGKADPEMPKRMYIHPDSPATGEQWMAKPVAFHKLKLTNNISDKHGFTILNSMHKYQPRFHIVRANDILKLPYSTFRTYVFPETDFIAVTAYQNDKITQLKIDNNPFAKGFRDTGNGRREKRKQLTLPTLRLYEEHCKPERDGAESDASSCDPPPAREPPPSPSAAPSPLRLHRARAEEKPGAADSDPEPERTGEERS

Measured: binding

EGFP-PCGF1 (from UniProt Q9BSM1 1-259)
binds: all assays above
